In the supplement of paper PMC3334620:
Whole data set: some 33,000 sequences, median “E-score (-0.5 to 0.5)” near -0.0059, cut for the highest 2% near 0.26. The list shows a part of the results.

The sequences below were run against T1, Cin5 (UniProt P40917) (assay: PBM E-score (8-mer binding enrichment) (E-score (-0.5 to 0.5)); higher = stronger / more preferred TF binding). Settings: protein concentration: 100 nM; construct: GST-full length.
T1 sequence: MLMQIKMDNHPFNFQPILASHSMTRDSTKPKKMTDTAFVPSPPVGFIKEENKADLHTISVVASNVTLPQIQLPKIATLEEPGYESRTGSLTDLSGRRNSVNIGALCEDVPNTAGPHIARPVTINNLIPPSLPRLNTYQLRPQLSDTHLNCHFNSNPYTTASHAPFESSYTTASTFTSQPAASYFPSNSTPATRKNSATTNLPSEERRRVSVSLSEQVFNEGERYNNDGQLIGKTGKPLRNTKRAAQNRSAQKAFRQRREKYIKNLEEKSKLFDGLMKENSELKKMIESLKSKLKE
Procedure, shortened: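 Using PURExpress in vitro transcription/translation, GST-tagged yeast transcription factors were made in full-length or DNA-binding-domain form. These were applied at about 100-200 nM to double-stranded universal all-10-mer Agilent arrays, and bound protein was detected with fluorescent anti-GST. Scans were normalised with masliner before the Universal PBM Analysis Suite assigned E-scores to ungapped eight-base words pooled with their reverse complements.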

Sequence | PBM E-score
TCTTCACA | -0.00388
CGCACAAC | 0.0596
ATGAAGCC | 0.126
ACTGAGTC | 0.0257
GTGATATA | 0.0895
CACCTAGC | -0.172
TGTCACAA | 0.146
CTTACCAA | 0.286
CTATACCC | -0.0148
ACTAACCT | 0.147
AATGAATA | 0.15
GTACCGCA | 0.0528
CGGACGAG | -0.134
GCCTGTCC | -0.207
CCAACACG | 0.0425
GATGCTGA | -0.139
ACGGAAAG | 0.245
GACGCTAC | -0.0265
CTACTAGC | 0.109
ACGACCCC | -0.0873
GGCCCCCA | -0.485
ACTCAAAC | 0.034
GGGGGGTA | -0.487
AACAATTG | 0.0983
GACTTACC | -0.0423

Sequence | PBM E-score
CTCAGCGC | 0.0746
ACAACAGT | 0.0785
AACGGCAT | 0.237
CAGATGAC | -0.0913
TCCGCAGA | -0.0763
ATCCGCGC | -0.0165
AATCTCGG | 0.0258
GATCAACA | -0.0699
CGTGAGAC | 0.00946
CACGAGCA | -0.0126
AAACCTGG | -0.039
CCCTCAGC | -0.0662
AAATCACG | 0.152
CCCGCGGC | 0.0548
GGCCTCAA | -0.0254
AGCCCCGG | -0.151
CATACATG | 0.112
CTCCAAGC | -0.0875
GGGCGCGA | 0.0157
AGAGGAAG | -0.174
CAGCCTCC | -0.28
ACTCGCAA | -0.0176
ATGTTACG | -0.125
GGGTTTTA | 0.0599
ACGCCCGG | -0.178

Sequence | PBM E-score
CTTTACTC | 0.191
CGGGGCTA | -0.18
AAGTCTTG | -0.119
AAAAGCTA | 0.0723
ATAAAGTA | 0.264
CACCCTCA | -0.126
AGTACCCA | 0.00962
CTGCTCCC | -0.161
TCCTTAAA | -0.0659
AGCATCGA | 0.0188
AACATCTT | -0.0627
TGTGCGAA | -0.133
ATGCAAGA | 0.127
GAAGTCTA | -0.0123
ACCAGGCG | -0.12
AGGATAAT | 0.177
GCAATGAC | -0.161
CGGTAGTC | -0.127
TCCCACAA | -0.0432
CCATTAAG | -0.0114
AAAACATT | 0.0962
AGAAATAT | 0.189
CGGAGTAA | 0.0682
GACGTGGC | -0.186
AATAACTA | 0.212

Sequence | PBM E-score
CGTCGAGA | 0.049
CTTATTCA | 0.142
TAATAAGA | 0.105
ATTAAAAT | 0.207
ATCCCTGG | -0.207
CGGGACTC | -0.13
GCTTTGGA | 0.0963
AACATCGC | 0.0345
CAACTCCA | 0.0308
AATTGGAT | 0.159
AAACACGC | 0.0173
GACCTCTA | -0.159
CAAGTAGG | -0.143
GACGATCA | -0.141
GTCATAAA | 0.0135
ACGTCGCG | -0.0544
CTGACTCA | 0.108
CAGTACGC | -0.00348
CAATGTGG | 0.0271
ACTAGATA | 0.147
ATAGTTTC | 0.133
ATAAAGTG | 0.149
CCTAGGAA | -0.0125
GATGTCTA | -0.0949
AATGGAAT | 0.254

Sequence | PBM E-score
CCTTTACG | 0.171
CTGAAGCC | -0.138
AAGTTATT | 0.178
CAGTCGAA | -0.0494
GATCTGAA | -0.153
ACGCTAAA | -0.0625
GGCCATCA | 0.086
ACCTTCAT | 0.0567
GGCGAGAC | -0.122
ATTTTGTC | -0.00928
CCTTTCCA | -0.0665
CGATAACC | 0.0481
GCCTCTAA | -0.124
GGTCAGAC | -0.264
ATCCATCA | 0.172
CAGTGCCC | -0.192
AATACTCC | -0.00991
GAACTAAC | -0.0148
CGTCGGGC | -0.366
CTTATCCC | -0.0209
ACTGAGGC | -0.0128
AATCTATC | 0.118
AACTGGAT | 0.126
GACCTTTA | 0.00652
GCACGGGA | -0.0662

Sequence | PBM E-score
CTGCCCGC | 0.038
CGGTTATA | 0.0931
GAAGCGTA | 0.121
ATTTAAGC | 0.25
CGAATCCA | -0.00541
TGTATACA | 0.217
GCAGCCTA | -0.254
GTGCATTA | 0.0714
CACATCGG | -0.121
AGCATCTA | 0.00891
GGCACCTA | -0.0967
AGAGAATA | 0.222
AGTAATTC | 0.194
AGTCGAGC | -0.165
AAACATTG | -0.0181
TCCCTTCA | -0.11
ACACCCAG | -0.131
CTATCCAA | -0.105
AATAAGGG | 0.0887
AACATCGG | -0.084
ACGCTACG | -0.109
GACGTAGC | -0.282
CTGTCCTC | -0.142
CGTAAACA | 0.146
GTATGTGA | 0.0438

Part of the list above, set out differently:
Sequence	PBM E-score
AGTAATTC	0.194
AGTCGAGC	-0.165
AAACATTG	-0.0181
TCCCTTCA	-0.11

Carrying on.

Sequence | PBM E-score
GTCAGGTA | -0.0517
ATAGAGCA | 0.113
CATATGTA | 0.172
AGCTGACG | 0.158
CGACATGA | -0.0587
TAGCTTCA | -0.00071
GGACCAAC | -0.134
CGAGGTAC | -0.153
AAATGGGC | -0.0629
CTACTTCC | 0.0929
TAGTGATA | -0.0113
ATATTCTA | 0.201
CTTCATTA | 0.215
CAACACCA | 0.112
GGTGATGA | 0.181
GGAGATGA | 0.0743
AAACGAAC | 0.0876
CGCTACCA | -0.143
TACGAGCA | -0.0525
CCTTTTCC | -0.0969
GTTGCTGA | 0.12
ACAAACAC | 0.156

Looked up one by one from the entries so far (three):
Sequence | PBM E-score
CGCTACCA | -0.143
CGACATGA | -0.0587
GGTGATGA | 0.181
